# Source: PMC8384837
# Residue numbers refer to the chain shown, from its start. The list shows a part of the results. For part of these data: At the low end of the ranking the order means little.
# Columns and labels:
# Conditions in all cases: yeast three-hybrid, YBZ-1, SC-Leu-His + 0.5 mM 3-AT, 4 days
# [1] = biological target: T1, PUM1 PUF domain R5-NAR C1007N + R1008A + Q1011R (Homo sapiens) (UniProt Q14671)
# T1 sequence: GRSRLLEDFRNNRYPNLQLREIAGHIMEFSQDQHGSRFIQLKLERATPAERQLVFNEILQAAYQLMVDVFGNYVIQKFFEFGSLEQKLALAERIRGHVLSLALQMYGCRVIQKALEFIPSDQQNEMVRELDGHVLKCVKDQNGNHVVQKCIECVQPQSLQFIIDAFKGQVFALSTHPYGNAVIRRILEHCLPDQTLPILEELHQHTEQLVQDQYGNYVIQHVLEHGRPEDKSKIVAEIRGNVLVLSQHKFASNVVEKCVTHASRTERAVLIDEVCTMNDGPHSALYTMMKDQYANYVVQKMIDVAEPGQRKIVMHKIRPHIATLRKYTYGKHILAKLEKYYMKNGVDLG
# [2] = biological target: T2, PUM1 PUF domain R5-NDG C1007N + R1008D + Q1011G (UniProt Q14671)
# T2 sequence: T1 sequence with A181D, R184G
# [3] = biological target: T3, PUM1 PUF domain R5-NTR C1007N + R1008T + Q1011R (Homo sapiens) (UniProt Q14671)
# T3 sequence: T1 sequence with A181T
# [4] = biological target: T4, PUM1 PUF domain R5-PRC C1007P + Q1011C (Homo sapiens) (UniProt Q14671)
# T4 sequence: T1 sequence with N180P, A181R, R184C
# [5] = biological target: T5, PUM1 PUF domain R5-QAR C1007Q + R1008A + Q1011R (Homo sapiens) (UniProt Q14671)
# T5 sequence: T1 sequence with N180Q
# [6] = biological target: T6, PUM1 PUF domain R5-QNR C1007Q + R1008N + Q1011R (Homo sapiens) (UniProt Q14671)
# T6 sequence: T1 sequence with N180Q, A181N
# [7] = biological target: T7, PUM1 PUF domain R5-QSR C1007Q + R1008S + Q1011R (UniProt Q14671)
# T7 sequence: T1 sequence with N180Q, A181S
# [8] = biological target: T8, PUM1 PUF domain R5-QVR C1007Q + R1008V + Q1011R (Homo sapiens) (UniProt Q14671)
# T8 sequence: T1 sequence with N180Q, A181V
# [9] = biological target: T9, PUM1 PUF domain R5-RAA C1007R + R1008A + Q1011A (UniProt Q14671)
# T9 sequence: T1 sequence with N180R, R184A
# [10] = biological target: T10, PUM1 PUF domain R5-RAD C1007R + R1008A + Q1011D (UniProt Q14671)
# T10 sequence: T1 sequence with N180R, R184D
# [11] = biological target: T11, PUM1 PUF domain R5-RAM C1007R + R1008A + Q1011M (Homo sapiens) (UniProt Q14671)
# T11 sequence: T1 sequence with N180R, R184M
# [12] = biological target: T12, PUM1 PUF domain R5-RAQ C1007R + R1008A (Homo sapiens) (UniProt Q14671)
# T12 sequence: T1 sequence with N180R, R184Q
# [13] = biological target: T13, PUM1 PUF domain R5-RAR C1007R + R1008A + Q1011R (Homo sapiens) (UniProt Q14671)
# T13 sequence: T1 sequence with N180R
# [14] = biological target: T14, PUM1 PUF domain R5-RAS C1007R + R1008A + Q1011S (UniProt Q14671)
# T14 sequence: T1 sequence with N180R, R184S
# [15] = biological target: T15, PUM1 PUF domain R5-RAT C1007R + R1008A + Q1011T (Homo sapiens) (UniProt Q14671)
# T15 sequence: T1 sequence with N180R, R184T
# [16] = biological target: T16, PUM1 PUF domain R5-RAV C1007R + R1008A + Q1011V (UniProt Q14671)
# T16 sequence: T1 sequence with N180R, R184V
# [17] = biological target: T17, PUM1 PUF domain R5-RCC C1007R + R1008C + Q1011C (Homo sapiens) (UniProt Q14671)
# T17 sequence: T1 sequence with N180R, A181C, R184C
# [18] = biological target: T18, PUM1 PUF domain R5-RCD C1007R + R1008C + Q1011D (UniProt Q14671)
# T18 sequence: T1 sequence with N180R, A181C, R184D
# [19] = biological target: T19, PUM1 PUF domain R5-RCG C1007R + R1008C + Q1011G (Homo sapiens) (UniProt Q14671)
# T19 sequence: T1 sequence with N180R, A181C, R184G
# [20] = biological target: T20, PUM1 PUF domain R5-RCK C1007R + R1008C + Q1011K (Homo sapiens) (UniProt Q14671)
# T20 sequence: T1 sequence with N180R, A181C, R184K
# [21] = biological target: T21, PUM1 PUF domain R5-RCL C1007R + R1008C + Q1011L (Homo sapiens) (UniProt Q14671)
# T21 sequence: T1 sequence with N180R, A181C, R184L
# [22] = biological target: T22, PUM1 PUF domain R5-RCR C1007R + R1008C + Q1011R (Homo sapiens) (UniProt Q14671)
# T22 sequence: T1 sequence with N180R, A181C
# [23] = biological target: T23, PUM1 PUF domain R5-RCS C1007R + R1008C + Q1011S (Homo sapiens) (UniProt Q14671)
# T23 sequence: T1 sequence with N180R, A181C, R184S
# [24] = biological target: T24, PUM1 PUF domain R5-RCV C1007R + R1008C + Q1011V (UniProt Q14671)
# T24 sequence: T1 sequence with N180R, A181C, R184V
# [25] = biological target: T25, PUM1 PUF domain R5-RFP C1007R + R1008F + Q1011P (Homo sapiens) (UniProt Q14671)
# T25 sequence: T1 sequence with N180R, A181F, R184P
# [26] = biological target: T26, PUM1 PUF domain R5-RGA C1007R + R1008G + Q1011A (UniProt Q14671)
# T26 sequence: T1 sequence with N180R, A181G, R184A
# [27] = biological target: T27, PUM1 PUF domain R5-RGC C1007R + R1008G + Q1011C (Homo sapiens) (UniProt Q14671)
# T27 sequence: T1 sequence with N180R, A181G, R184C
# [28] = biological target: T28, PUM1 PUF domain R5-RGD C1007R + R1008G + Q1011D (UniProt Q14671)
# T28 sequence: T1 sequence with N180R, A181G, R184D
# [29] = biological target: T29, PUM1 PUF domain R5-RGE C1007R + R1008G + Q1011E (UniProt Q14671)
# T29 sequence: T1 sequence with N180R, A181G, R184E
# [30] = biological target: T30, PUM1 PUF domain R5-RGG C1007R + R1008G + Q1011G (Homo sapiens) (UniProt Q14671)
# T30 sequence: T1 sequence with N180R, A181G, R184G
# [31] = biological target: T31, PUM1 PUF domain R5-RGM C1007R + R1008G + Q1011M (Homo sapiens) (UniProt Q14671)
# T31 sequence: T1 sequence with N180R, A181G, R184M
# [32] = biological target: T32, PUM1 PUF domain R5-RGP C1007R + R1008G + Q1011P (UniProt Q14671)
# T32 sequence: T1 sequence with N180R, A181G, R184P
# [33] = biological target: T33, PUM1 PUF domain R5-RGQ C1007R + R1008G (Homo sapiens) (UniProt Q14671)
# T33 sequence: T1 sequence with N180R, A181G, R184Q
# [34] = biological target: T34, PUM1 PUF domain R5-RGR C1007R + R1008G + Q1011R (Homo sapiens) (UniProt Q14671)
# T34 sequence: T1 sequence with N180R, A181G
# [35] = biological target: T35, PUM1 PUF domain R5-RGS C1007R + R1008G + Q1011S (UniProt Q14671)
# T35 sequence: T1 sequence with N180R, A181G, R184S
# [36] = biological target: T36, PUM1 PUF domain R5-RGT C1007R + R1008G + Q1011T (UniProt Q14671)
# T36 sequence: T1 sequence with N180R, A181G, R184T
# [37] = biological target: T37, PUM1 PUF domain R5-RGV C1007R + R1008G + Q1011V (UniProt Q14671)
# T37 sequence: T1 sequence with N180R, A181G, R184V
# [38] = biological target: T38, PUM1 PUF domain R5-RGW C1007R + R1008G + Q1011W (UniProt Q14671)
# T38 sequence: T1 sequence with N180R, A181G, R184W
# [39] = biological target: T39, PUM1 PUF domain R5-RHR C1007R + R1008H + Q1011R (Homo sapiens) (UniProt Q14671)
# T39 sequence: T1 sequence with N180R, A181H
# [40] = biological target: T40, PUM1 PUF domain R5-RKE C1007R + R1008K + Q1011E (Homo sapiens) (UniProt Q14671)
# T40 sequence: T1 sequence with N180R, A181K, R184E
# [41] = biological target: T41, PUM1 PUF domain R5-RKG C1007R + R1008K + Q1011G (Homo sapiens) (UniProt Q14671)
# T41 sequence: T1 sequence with N180R, A181K, R184G
# [42] = biological target: T42, PUM1 PUF domain R5-RKP C1007R + R1008K + Q1011P (Homo sapiens) (UniProt Q14671)
# T42 sequence: T1 sequence with N180R, A181K, R184P
sequence,measurement,setting,value
GGCUAGAACUAGUGGAUCCCCCGGCGCCCGGCGGCUCGAGCCCGGGUAAGUGUGAAUAGUCUGCAUGCCGCCGGGCGCCAUGCCUGCAGGUCGACUCUAGAAAACAUG,binding signal (log2 enrichment (interaction score)),[1],-1.72
same,binding signal (log2 enrichment (interaction score)),[2],< -7.98
same,binding signal (log2 enrichment (interaction score)),[3],-0.9
same,binding signal (log2 enrichment (interaction score)),[4],-1.17
same,binding signal (log2 enrichment (interaction score)),[5],-1.52
same,binding signal (log2 enrichment (interaction score)),[6],-0.22
same,binding signal (log2 enrichment (interaction score)),[7],-6.82
same,binding signal (log2 enrichment (interaction score)),[8],-1.69
same,binding signal (log2 enrichment (interaction score)),[9],-6.28
same,binding signal (log2 enrichment (interaction score)),[10],-3.34
same,binding signal (log2 enrichment (interaction score)),[11],-1.93
same,binding signal (log2 enrichment (interaction score)),[12],-0.45
same,binding signal (log2 enrichment (interaction score)),[13],-0.54
same,binding signal (log2 enrichment (interaction score)),[14],-2.19
same,binding signal (log2 enrichment (interaction score)),[15],-0.6
same,binding signal (log2 enrichment (interaction score)),[16],-4.53
same,binding signal (log2 enrichment (interaction score)),[17],-0.19
same,binding signal (log2 enrichment (interaction score)),[18],< -7.19
same,binding signal (log2 enrichment (interaction score)),[19],-1.34
same,binding signal (log2 enrichment (interaction score)),[20],-1.17
same,binding signal (log2 enrichment (interaction score)),[21],-1.8
same,binding signal (log2 enrichment (interaction score)),[22],-0.91
same,binding signal (log2 enrichment (interaction score)),[23],-1.19
same,binding signal (log2 enrichment (interaction score)),[24],-6.79
same,binding signal (log2 enrichment (interaction score)),[25],-0.41
same,binding signal (log2 enrichment (interaction score)),[26],-3.33
same,binding signal (log2 enrichment (interaction score)),[27],-2.22
same,binding signal (log2 enrichment (interaction score)),[28],-6.01
same,binding signal (log2 enrichment (interaction score)),[29],-4.12
same,binding signal (log2 enrichment (interaction score)),[30],-1.04
same,binding signal (log2 enrichment (interaction score)),[31],-0.59
same,binding signal (log2 enrichment (interaction score)),[32],-2.91
same,binding signal (log2 enrichment (interaction score)),[33],-0.79
same,binding signal (log2 enrichment (interaction score)),[34],-0.27
same,binding signal (log2 enrichment (interaction score)),[35],-3.15
same,binding signal (log2 enrichment (interaction score)),[36],-2.27
same,binding signal (log2 enrichment (interaction score)),[37],-3.42
same,binding signal (log2 enrichment (interaction score)),[38],-7.43
same,binding signal (log2 enrichment (interaction score)),[39],1.14
same,binding signal (log2 enrichment (interaction score)),[40],-1.18
same,binding signal (log2 enrichment (interaction score)),[41],-2.16
same,binding signal (log2 enrichment (interaction score)),[42],-0.89

# Random excerpt: 2 entries already listed, in no set order.
sequence,measurement,setting,value
GGCUAGAACUAGUGGAUCCCCCGGCGCCCGGCGGCUCGAGCCCGGGUAAGUGUGAAUAGUCUGCAUGCCGCCGGGCGCCAUGCCUGCAGGUCGACUCUAGAAAACAUG,binding signal (log2 enrichment (interaction score)),[9],-6.28
same,binding signal (log2 enrichment (interaction score)),[12],-0.45
